For this test, the target named is T1, endothelial protein C receptor, extracellular domain (human) (UniProt Q9UNN8).
T1 sequence: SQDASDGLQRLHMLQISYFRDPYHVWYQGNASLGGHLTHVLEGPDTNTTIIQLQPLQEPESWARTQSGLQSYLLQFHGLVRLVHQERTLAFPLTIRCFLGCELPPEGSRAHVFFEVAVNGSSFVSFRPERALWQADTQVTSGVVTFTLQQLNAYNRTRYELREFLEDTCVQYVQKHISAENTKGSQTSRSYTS
As to the kind of experiment: ELISA; both purified.

No constants are given. Whether binding was seen depends on the method and setting. A result given as binding can be weak or reduced; the word gives no strength.

With “IT4var20 CIDRα1.1 domain (Plasmodium falciparum) (domain or fragment)”, the binding entry is on record as “binds”.
